The source of these data is paper PMC3536758.

The target in data set [1] is T1, MBP-ComKBco (Bacillus coagulans DSM 1) (UniProt K4MVI2).
T1 sequence (looked up, limits assumed): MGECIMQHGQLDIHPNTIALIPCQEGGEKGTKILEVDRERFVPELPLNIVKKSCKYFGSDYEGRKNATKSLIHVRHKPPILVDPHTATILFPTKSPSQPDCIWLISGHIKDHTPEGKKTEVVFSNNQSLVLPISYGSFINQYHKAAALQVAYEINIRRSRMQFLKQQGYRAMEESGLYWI
Description: EMSA. The conditions noted are these: 275 nM-2.2 uM protein, poly(dI-dC); EMSA: binding buffer (composition not given) with poly(dI-dC), premixed on ice, 20 min at 30 C; 6% polyacrylamide gel in 1x TBE, 90 V, 60 min; pH and salt not given; recombinant protein; protein details: N-terminal MBP; label: 33P 5' end; probe letters rebuilt from the primers and the genome.

Data set [2] addresses T2, MBP-ComKBsu (Bacillus subtilis) (UniProt P40396).
T2 sequence (looked up, limits assumed): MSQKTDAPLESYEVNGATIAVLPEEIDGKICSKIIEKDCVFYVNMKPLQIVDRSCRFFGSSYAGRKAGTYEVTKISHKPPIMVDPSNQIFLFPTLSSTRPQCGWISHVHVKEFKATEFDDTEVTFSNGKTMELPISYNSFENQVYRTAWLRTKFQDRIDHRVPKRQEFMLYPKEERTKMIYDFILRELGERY
Description: EMSA. The conditions noted are these: 125 nM-1 uM protein, poly(dI-dC); EMSA: binding buffer (composition not given) with poly(dI-dC), premixed on ice, 20 min at 30 C; 6% polyacrylamide gel in 1x TBE, 90 V, 60 min; pH and salt not given; recombinant protein; protein details: MBP; label: 33P 5' end; probe letters rebuilt from the primers and the genome.

For at least one entry, the source does not settle the construct or the ends of the probe. For part of these data: Negatives hold for the conditions tested. Protein sequences can lack the tags named with them. For part of these data: At least one verdict rests on a figure or table, not on a statement of the authors.

For the sequence “GGGGCCCTTTCCAGCTTGGACCTGTATAACGAGCCATGAAAGACTCCTCCTTTGTTTTTATTTTGTTGTAAAATAAAAACAGATATCATGGACACTTCTTCATGCGTATTTTGTTTTCATGTACCATCGCCCCAGCAGCAGAGGGTTACACGATACACCTTGCATTCAGGCAAGGAACAAAATACAAACACAAAGCCGTCCAATAAGGCTGCATTATTTTACACAACGTTGATTATATGTTTTCAGAGAAAAAAAGTCAACAACAAATGCAAATCGGGATGCCGTTGCAAATCGGGATGCCATGCCAAAAAAATTTTACATACCGGTTTTGCCGGGTTCATAACAGGACTTAAGATACAACACATACTGTATATCGGTCGAGCGGGCTGTACATTTATAGTACTTTTGCATTATAATGGTATTAATTTGACCGGTTTTTACATTTTTACGTCTCCCGTGCGGTTTTTTGTTTTAAAATTCTTCATTTTCAAGGTTCACACTTTTTAGTGCTTTTTTTCGCTTTTATACGGAAACAGGGTCAGGGTGATTAGGAAATGGAAAAAAAGAAAGAAAATCATTTAATCCTATATTATAAGTCCCGTTTACTGGATTGGTACCC (double strand) [rpsDBco promoter]”, in data set [1], the binding result is listed as “no binding”. “GGGCCCTTCTACCGACATAATCCATCACATACCACCTTTCTTTTGGGATATTCTCTCATTTCGACACGGCTTTCAAAATTCCTGCTGAAAGCAAAAATTTTTTCGCTATTTTTTTCTCTCAGCCGCAAAAAAGTGTGTGATTTTTGTCACAAATTTTGGCGTTGTTATCATTTATAATATAGATAGGATAAAAAATATAGAGGTGTTTAATATGGAACCAACATTAAAAGTGATCAACGCCCTTTCTGACCCGACCCGCTACTCGATTTACCAATTTGTACTGAAGAAACGGAGCGAAGTATCCGTCCAGGAAGGTACC (double strand) [comGABco promoter]”: the binding result in data set [2] and in data set [1] was “binds” throughout.
